Source: PubChem BioAssay AID540276 (National Center for Advancing Translational Sciences (NCATS), 2011)
About 5,400 (1.8%) of roughly 300,000 compounds were called active. The inconclusive results got no clear call from the source; some entries with a clear call stand among them for comparison. Calls follow the shape of the full dose curve; tested in HEK293 cells. A potency beside an inconclusive call is a rough fit, not a confirmed value.

Test: qHTS for inhibitors of binding or entry into cells for Marburg Virus
Details: Marburg virus pseudotyped entry inhibition, cell reporter; series mostly up to 37.8 µM
Potency is read from the fitted curve at half-maximal effect.

SMILES | Potency
Cc1cc(OCC(=O)Nc2cc(S(=O)(=O)N3CCOCC3)ccc2N2CCCC2)ccc1C(C)C | inconclusive: 28.2 µM [inhibitor, single point]
CCc1ccccc1NC(=O)CCc1nc(-c2cccs2)no1 | inactive
COC(=O)CSc1nc(C)cc(C)n1 | inconclusive: 6.31 µM [inhibitor, single point]
NNC(=O)c1nc[nH]c1C(=O)Nc1ccccc1[N+](=O)[O-] | inconclusive: 3.98 µM [inhibitor, partial curve, poor fit]
CC(=O)Nc1ccc(-c2cn3cc(C)ccc3n2)cc1 | inconclusive: 5.17 µM [inhibitor, partial curve, poor fit]
Cc1ccc(NS(=O)(=O)c2ccc(C(=O)NCc3ccc(S(N)(=O)=O)cc3)cc2)cc1 | inconclusive: 11.2 µM [inhibitor, single point]
CN(C(=O)c1ccc(S(=O)(=O)c2cccc(Cl)c2)c([N+](=O)[O-])c1)C1CCCCC1 | inconclusive: 10 µM [inhibitor, partial curve, poor fit]
CCOC(=O)c1cnc2c(ccc3ccccc32)c1Nc1ccc(OC)cc1OC | inconclusive: 35.5 µM [inhibitor, single point]
COCCCNC(=S)N/N=C/c1ccc(N(C)C)cc1 | inactive
Cc1sc2ncnc(Sc3nnnn3-c3ccccc3)c2c1C | inconclusive: 29.1 µM [inhibitor, single point]
CC(C)(C)c1ccc(O)c(/C=N\O)c1 | inactive
CCOP(=O)(NC12CC3CC(CC(C3)C1)C2)NC12CC3CC(CC(C3)C1)C2 | inactive
COc1ccccc1NC(=O)NCCCl | inactive
COc1c(C)cc(C(=O)C2CCCN(C3CCOCC3)C2)cc1C (configuration not stated) | inactive
Cc1ccccc1C(=O)N1CCCCC1CCN1CCCCC1 (configuration not stated) | inactive
Cc1cccc(Nc2nc(NCc3ccco3)c3ccccc3n2)c1 | inconclusive: 14.6 µM [inhibitor, partial curve, poor fit]
O=C(O)C(Cc1ccccc1)N=Cc1c(O)c2ccccc2oc1=O (configuration not stated) | inactive
O=C(Cc1ccc(Br)cc1)NCCc1ccc(F)cc1 | inactive
Cc1ccc(OCC(=O)Nc2ccc(N3CCN(C(=O)c4ccco4)CC3)cc2)cc1C | inconclusive: 35.5 µM [inhibitor, single point]
O=C(/C=C/c1ccc(F)cc1)NC(=S)NNC(=O)c1cnccn1 | inconclusive: 6.31 µM [inhibitor, single point]
CC1(C(=O)NCc2cc(F)cc(C(F)(F)F)c2)C=CC2(CCCCC2)N1C(=O)c1ccccc1 (configuration not stated) | inconclusive: 23.1 µM [activator, single point]
CCOc1ccc(-n2cc(C(=O)NCCOC)c3cc(OC)c(OC)cc3c2=O)cc1 | inconclusive: 6.31 µM [inhibitor, single point]
Cc1cc(=O)[nH]c(NN=C2CCCCC2C)n1 (configuration not stated) | inactive
CCOC(=O)c1sc(Nc2ccc(F)cc2)nc1C | inconclusive: 1.26 µM [activator, partial curve, poor fit]

SMILES | Potency
Cc1ccc(Nc2nc3nonc3[nH]c2=O)cc1C | inconclusive: 6.31 µM [activator, single point]
COc1cc2c(cc1OC)CN(c1ccc([N+](=O)[O-])cc1C#N)CC2 | inconclusive: 10 µM [inhibitor, partial curve, poor fit]
O=C(NCCNC1CCC(c2ccccc2)CC1)c1cccs1 (configuration not stated) | inconclusive: 11.2 µM [inhibitor, partial curve, poor fit]
COC(=O)C(NC(=O)c1ccccc1)=C(C)C | inactive
CC(=O)Nc1nc(-c2ccccc2)ns1 | inconclusive: 3.26 µM [activator, single point]
N#Cc1ccc(CSc2nc(N)cc(N)n2)cc1 | inactive
CSc1ccc(Oc2cccc3c2S(=O)(=O)N(C2CC2)C[C@@H](COCc2ccccc2)O3)cc1C | inconclusive: 7.05 µM [inhibitor, full curve, poor fit]
Cc1ccc(C2(c3noc(CN4C[C@@H](C)O[C@@H](C)C4)n3)CCCC2)cc1 | inconclusive: 0.562 µM [inhibitor, full curve, poor fit]
Cc1ccc(CCNS(=O)(=O)c2ccc3c(c2)CCN3C(=O)CCC(=O)O)cc1 | inactive
O=[N+]([O-])c1ccc(C=NN=Cc2ccc([N+](=O)[O-])cc2)cc1 | inconclusive: 4.47 µM [activator, full curve, poor fit]
CCOc1ccc(-n2c(-c3ccco3)n[nH]c2=S)cc1 | inactive
COc1ccccc1N1CCN(c2nc3ccccc3nc2C(C#N)C(=O)OC(C)C)CC1 (configuration not stated) | inconclusive: 8.91 µM [inhibitor, partial curve, poor fit]
Cc1csc(NC(=O)c2ccc(COc3ccccc3)o2)n1 | inconclusive: 22.4 µM [inhibitor, single point]
Cc1cc(C(=O)CN2C(=O)NC3(CCC(C)CC3)C2=O)c(C)n1C (configuration not stated) | inactive
O=C(Cc1ccc(F)cc1)Nc1cccc(-c2nc3cccnc3s2)c1 | inconclusive: 3.16 µM [inhibitor, partial curve, poor fit]
CCC(C)c1ccc(S(=O)(=O)N2CCN(C(=O)COc3ccc4c(C)cc(=O)oc4c3)CC2)cc1 (configuration not stated) | inconclusive: 35.5 µM [inhibitor, single point]
N#Cc1ccccc1NC(=O)c1cccc(COc2ccc(Cl)cc2Cl)c1 | inconclusive: 22.4 µM [inhibitor, partial curve, poor fit]
Cc1ccc(C(=O)Nc2sc(C(=O)N(C)C)c(C)c2C#N)cc1 | inactive
Nc1ccccc1C(=O)N=Nc1[nH]c(N)c2ccccc12 | inconclusive: 3.98 µM [activator, single point]
COCCn1c(C)cc(/C=C(\C#N)C(=O)OCC(=O)Nc2ccc(S(N)(=O)=O)cc2)c1C | inactive
Fc1ccccc1CNC(=S)NC1CCCCC1 | inconclusive: 11.2 µM [activator, partial curve, poor fit]
CC(=O)Nc1ccc(-c2ccnc(-c3ccc(NC(C)=O)cc3)n2)cc1 | inconclusive: 12.6 µM [inhibitor, single point]
O=C(/C=C/c1ccc(F)cc1)NCCCN1CCN(CCCNC(=O)/C=C/c2ccc(F)cc2)CC1 | inconclusive: 35.5 µM [inhibitor, single point]
CCOc1cc(CNCCSc2nnnn2C)cc(Cl)c1OCc1ccc(Cl)cc1 | inconclusive: 2 µM [inhibitor, partial curve, poor fit]

3 consecutive entries from above, for reference:
SMILES | Potency
Cc1cc(=O)[nH]c(NN=C2CCCCC2C)n1 (configuration not stated) | inactive
CCOC(=O)c1sc(Nc2ccc(F)cc2)nc1C | inconclusive: 1.26 µM [activator, partial curve, poor fit]
Cc1ccc(Nc2nc3nonc3[nH]c2=O)cc1C | inconclusive: 6.31 µM [activator, single point]

The list continues.

SMILES | Potency
Cc1cc(C(=O)Nc2nc3ccc(Cl)cc3s2)nn1C | inconclusive: 6.31 µM [activator, single point]
CN(C)c1oc(-c2ccccc2F)nc1C#N | inactive
O=C(C[n+]1ccc2ccccc2c1)c1ccccc1 | inconclusive: 17.8 µM [inhibitor, single point]
CCCCOC(=O)Nc1ccc(S(=O)(=O)Nc2ncccn2)cc1 | inconclusive: 14.1 µM [activator, single point]
Cc1ccccc1CS(=O)(=O)Cc1ccc(C(=O)N2CCOCC2)o1 | inconclusive: 11.2 µM [activator, single point]
COc1ccc(Cc2nc(-c3ccc(Cl)cc3)no2)cc1 | inactive
CCOc1ccccc1N1CCN(S(=O)(=O)c2ccc3c4c(cccc24)C(=O)N3)CC1 | inconclusive: 16.4 µM [inhibitor, partial curve]
CC(C)Oc1ccc(CN2CCC(n3nccc3NC(=O)C3CC3)CC2)cc1 | inactive
CCC12CN(S(=O)(=O)c3ccc(C)cc3)CC(CC)(CN(S(=O)(=O)c3ccc(C)cc3)C1)C2=O | inconclusive: 16.4 µM [inhibitor, single point]
N#CC1=C(N)NC(SCc2ccccc2)=C(C#N)C12CCCCC2 | inconclusive: 16.4 µM [inhibitor, single point]
CC(=O)Nc1ccc(C(=O)Nc2cc(S(=O)(=O)N3CCOCC3)ccc2N2CCOCC2)cc1 | inconclusive: 5.62 µM [inhibitor, single point]
Cc1cc(C)c(C#N)c(SCc2c(F)cccc2[N+](=O)[O-])n1 | inactive
COCCSc1nnc(NC(=O)CS(=O)(=O)c2ccc(C)cc2)s1 | inactive
CC(=O)c1c(C)[nH]c(C(=O)CSc2nc3ccccc3n2C)c1C | inconclusive: 14.1 µM [inhibitor, partial curve, poor fit]
Cn1c(O)c(C(=Nc2ccccc2)SCc2ccccc2Cl)c(=O)n(C)c1=O | inconclusive: 5.01 µM [inhibitor, full curve, poor fit]
O=c1oc2ccc(NS(=O)(=O)c3cccc4cccnc34)cc2s1 | inconclusive: 35.5 µM [inhibitor, single point]
O=c1[nH]c2ccc(S(=O)(=O)Nc3cc(Cl)ccc3O)cc2o1 | inactive
CC(=NNC(=S)N(Cc1ccccn1)Cc1ccccn1)c1cnccn1 | inconclusive: 2.82 µM [inhibitor, full curve, poor fit]
CCOc1ccccc1CNC(=O)c1cc2oc3ccccc3c2n1CC | active: 3.26 µM
CCOC(=O)c1cccc(NC(=O)c2cccnc2)c1 | inactive
CCC(=O)N(Cc1cccs1)C1CCOC(C)(C)C1 (configuration not stated) | inactive
Cc1ccn2c(-c3csc(NCc4ccccc4)n3)c(C)nc2c1 | inconclusive: 31.6 µM [inhibitor, single point]
Cc1ccsc1/C=N/N=C1\C(=O)Nc2ccccc21 | inactive
CCOc1ccc(C(=O)NCC(=O)Nc2ccc3c(c2)OCO3)cc1OCC | inconclusive: 6.31 µM [inhibitor, single point]
